Measurements: PMC5008309
These are yes or no findings as the source states them, for the method shown. Binding seen in cells or lysates may run through a third protein. These calls come from enrichment with a bait or labelling near it, and not all partners need be listed. Sequences can lack the tags named with a protein.

Chains of the proteins cited; added tags and fusions are not shown. Residues count along the entry.
UniProt P21860, residues 20-1342: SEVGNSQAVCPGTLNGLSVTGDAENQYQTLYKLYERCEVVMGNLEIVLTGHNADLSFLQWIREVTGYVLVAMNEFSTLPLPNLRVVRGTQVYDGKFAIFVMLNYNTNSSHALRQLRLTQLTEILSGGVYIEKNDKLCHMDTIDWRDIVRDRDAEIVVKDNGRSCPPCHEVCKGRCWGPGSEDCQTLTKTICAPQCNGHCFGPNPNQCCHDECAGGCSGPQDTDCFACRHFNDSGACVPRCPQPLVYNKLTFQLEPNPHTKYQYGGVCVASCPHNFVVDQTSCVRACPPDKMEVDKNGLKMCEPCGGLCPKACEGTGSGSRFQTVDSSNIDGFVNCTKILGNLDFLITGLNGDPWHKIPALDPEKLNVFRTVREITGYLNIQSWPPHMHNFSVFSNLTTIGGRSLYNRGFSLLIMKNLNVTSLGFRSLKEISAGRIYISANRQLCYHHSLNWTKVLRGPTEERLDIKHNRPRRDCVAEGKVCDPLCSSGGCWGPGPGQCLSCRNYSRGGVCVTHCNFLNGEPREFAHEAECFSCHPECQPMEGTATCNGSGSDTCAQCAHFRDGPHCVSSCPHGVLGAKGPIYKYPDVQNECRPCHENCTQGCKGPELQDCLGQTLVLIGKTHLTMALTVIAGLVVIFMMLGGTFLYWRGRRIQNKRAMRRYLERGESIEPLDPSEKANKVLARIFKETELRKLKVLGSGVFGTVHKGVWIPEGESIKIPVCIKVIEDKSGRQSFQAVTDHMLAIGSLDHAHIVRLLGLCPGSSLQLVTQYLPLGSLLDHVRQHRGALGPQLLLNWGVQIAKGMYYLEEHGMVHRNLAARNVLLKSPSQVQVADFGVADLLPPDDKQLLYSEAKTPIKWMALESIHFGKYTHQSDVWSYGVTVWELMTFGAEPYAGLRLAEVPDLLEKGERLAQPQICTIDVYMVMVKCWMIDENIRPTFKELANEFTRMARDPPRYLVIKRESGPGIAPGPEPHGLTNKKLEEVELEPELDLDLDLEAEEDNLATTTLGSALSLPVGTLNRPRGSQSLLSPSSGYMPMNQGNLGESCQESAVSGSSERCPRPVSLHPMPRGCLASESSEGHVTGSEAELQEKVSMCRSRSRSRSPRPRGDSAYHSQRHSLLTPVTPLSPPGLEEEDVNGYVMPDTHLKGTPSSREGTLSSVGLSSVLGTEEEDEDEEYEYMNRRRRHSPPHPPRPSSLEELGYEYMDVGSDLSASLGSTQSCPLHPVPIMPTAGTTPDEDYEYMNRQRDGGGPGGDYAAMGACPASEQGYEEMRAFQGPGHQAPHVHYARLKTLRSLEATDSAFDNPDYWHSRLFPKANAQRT

Target: T1, 3xFLAG-tagged APIP expressed in SNU-16 cells (human) (UniProt Q96GX9)
T1 sequence: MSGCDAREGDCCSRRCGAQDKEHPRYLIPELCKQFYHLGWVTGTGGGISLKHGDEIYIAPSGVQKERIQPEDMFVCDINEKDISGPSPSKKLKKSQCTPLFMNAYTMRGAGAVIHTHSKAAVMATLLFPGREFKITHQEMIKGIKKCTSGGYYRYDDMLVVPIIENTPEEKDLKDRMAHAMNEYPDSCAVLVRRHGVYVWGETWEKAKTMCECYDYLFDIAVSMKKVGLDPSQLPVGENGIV
Test: affinity purification with mass spectrometry; SNU-16 cells expressing 3xFLAG-tagged APIP; FLAG M2 affinity gel; bound proteins resolved by SDS-PAGE, LC-MS/MS

- binding: binds
Substance: ERBB3 (HER3), endogenous in SNU-16 cells (from UniProt P21860 20-1342) (receptor)
